For assay [1], the target named is HA-tagged hSNF5 wildtype (full) (UniProt Q12824). The assay can be described thus: co-IP; Flag-RB1CC1 (wt or mutants) and HA-hSNF5 co-transfected into HEK293; lysates in TNE buffer, anti-Flag or anti-HA immobilized beads, 2 h at 4°C; immunoblot (called pull-down assay by the paper). (In general: A western blot detects proteins with antibodies after separation by electrophoresis.)

Amino acid sequences for entries named in this document (tags omitted). A change or cut given only in a name is not applied to a line headed by its entry.
UniProt Q12824: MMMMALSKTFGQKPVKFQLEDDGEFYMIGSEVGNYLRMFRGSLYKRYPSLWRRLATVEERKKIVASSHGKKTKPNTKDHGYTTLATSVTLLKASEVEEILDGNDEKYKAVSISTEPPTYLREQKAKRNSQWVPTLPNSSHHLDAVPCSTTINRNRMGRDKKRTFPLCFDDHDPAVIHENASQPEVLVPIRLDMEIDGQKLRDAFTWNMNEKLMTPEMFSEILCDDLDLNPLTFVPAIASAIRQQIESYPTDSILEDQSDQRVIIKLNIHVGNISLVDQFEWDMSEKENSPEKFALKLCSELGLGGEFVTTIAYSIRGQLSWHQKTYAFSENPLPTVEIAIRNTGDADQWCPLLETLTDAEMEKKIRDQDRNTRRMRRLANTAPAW
UniProt Q8TDY2: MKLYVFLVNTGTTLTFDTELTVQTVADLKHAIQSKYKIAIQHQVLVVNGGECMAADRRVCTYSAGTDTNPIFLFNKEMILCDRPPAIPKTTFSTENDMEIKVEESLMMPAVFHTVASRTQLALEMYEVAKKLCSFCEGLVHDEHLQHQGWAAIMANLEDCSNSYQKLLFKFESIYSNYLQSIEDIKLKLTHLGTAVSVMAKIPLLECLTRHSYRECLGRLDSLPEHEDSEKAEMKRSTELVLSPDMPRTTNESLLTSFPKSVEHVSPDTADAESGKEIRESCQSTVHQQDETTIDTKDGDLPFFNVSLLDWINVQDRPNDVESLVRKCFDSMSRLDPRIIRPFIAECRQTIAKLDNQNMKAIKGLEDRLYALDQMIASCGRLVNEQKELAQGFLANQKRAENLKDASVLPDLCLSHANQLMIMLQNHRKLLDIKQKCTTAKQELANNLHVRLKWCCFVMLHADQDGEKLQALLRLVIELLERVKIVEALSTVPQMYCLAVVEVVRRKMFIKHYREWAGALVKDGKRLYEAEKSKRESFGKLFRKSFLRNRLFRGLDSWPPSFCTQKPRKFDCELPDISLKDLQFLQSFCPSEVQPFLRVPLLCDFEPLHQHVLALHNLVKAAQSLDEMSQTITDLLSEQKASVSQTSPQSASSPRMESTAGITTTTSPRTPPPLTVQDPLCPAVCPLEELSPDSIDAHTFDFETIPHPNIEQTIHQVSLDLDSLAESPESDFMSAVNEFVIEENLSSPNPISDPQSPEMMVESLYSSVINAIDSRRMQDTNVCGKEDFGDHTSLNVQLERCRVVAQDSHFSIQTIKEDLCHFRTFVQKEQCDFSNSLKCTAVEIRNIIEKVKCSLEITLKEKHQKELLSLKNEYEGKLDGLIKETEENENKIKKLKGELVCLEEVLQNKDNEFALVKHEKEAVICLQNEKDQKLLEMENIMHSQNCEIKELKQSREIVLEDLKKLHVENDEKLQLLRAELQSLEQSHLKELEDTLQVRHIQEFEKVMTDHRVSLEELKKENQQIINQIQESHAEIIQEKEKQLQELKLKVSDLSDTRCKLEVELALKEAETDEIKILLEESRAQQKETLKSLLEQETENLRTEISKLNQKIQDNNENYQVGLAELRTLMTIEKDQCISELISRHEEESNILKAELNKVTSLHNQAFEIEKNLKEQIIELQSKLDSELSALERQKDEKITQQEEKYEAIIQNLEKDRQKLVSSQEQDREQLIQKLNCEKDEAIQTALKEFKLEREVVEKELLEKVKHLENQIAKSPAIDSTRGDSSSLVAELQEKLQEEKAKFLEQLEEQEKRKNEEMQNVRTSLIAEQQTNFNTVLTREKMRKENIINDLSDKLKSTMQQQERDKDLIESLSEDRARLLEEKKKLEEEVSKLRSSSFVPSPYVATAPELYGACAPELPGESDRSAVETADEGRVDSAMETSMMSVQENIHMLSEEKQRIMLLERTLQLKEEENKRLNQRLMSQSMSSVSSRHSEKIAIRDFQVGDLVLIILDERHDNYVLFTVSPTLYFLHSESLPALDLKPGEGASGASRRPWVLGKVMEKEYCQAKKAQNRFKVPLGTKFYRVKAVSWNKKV

In assay [2] the target is RB1-inducible coiled-coil 1 (RB1CC1), endogenous in MCF-7 cells (human (endogenous in MCF-7)) (UniProt Q8TDY2). The assay can be described thus: co-IP; MCF-7 lysate in NP-40 lysis buffer, immunoprecipitated with two kinds of anti-RB1CC1 rabbit polyclonal IgGs or normal control rabbit IgGs at 4°C overnight, protein-G beads; immunoblot.

These are yes or no findings as the source states them, for the method shown. Binding seen in cells or lysates may run through a third protein. Some binding calls cover weakened binding; strength is not graded here.

Turning to “Flag-tagged wildtype RB1CC1 (from UniProt Q8TDY2-1 1-1594)”, the binding entry in assay [1] is given as “binds”.
In the case of “hSNF5, endogenous in MCF-7 cells (from UniProt Q12824 1-385)”, in assay [2], the binding entry was “binds”.

For the origin of these results see PMC2894861.
